# Results deposited as PubChem BioAssay AID1259254 (NCATS, 2017).
# Aim: 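Genome-wide screen for genes that prevent DNA re-replication in cancer cells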 (primary screen)
# Cells: human HCT116 colorectal cancer cells
# Reagent: single siRNA against human genes
# Timing: 3 days
# Measured: 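Nuclei stained with Hoechst and imaged; cell-cycle phase assigned by DNA content; G2 share scaled per plate, non-targeting siRNA 0%, GMNN siRNA 100%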
# Reading the numbers: G2 robust z-score: higher = more G2 cells, more excess DNA replication
# Active means: 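An siRNA counts as active if its G2 robust z-score lies at least 5 MADs above the screen median; here such calls match roughly 38% of GMNN control or more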
# The whole screen tested about 59,000 reagents; below is a random part of them. About 1,550 of them (2.6%) were called active. 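G2 share is only a proxy for re-replication; each gene was hit by three separate siRNAs, and active genes were retested.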 A number with no mark means an inactive call. The numbers tell different reagents against one gene apart. Further read-outs or replicates are left out here. Not stated in the record: the amount of reagent.
Gene,reagent,G2 robust z-score
LAX1,1,0.55
LAX1,2,2.17
LAX1,3,1.58
MAPK4,1,1.21
MAPK4,2,0.0592
MAPK4,3,-0.0226
PHACTR1,1,0.456
PHACTR1,2,0.849
PHACTR1,3,-0.772
ZNF19,1,-0.339
ZNF19,2,0.573
ZNF19,3,1.22
SERF2,1,1.91
SERF2,2,-0.379
SERF2,3,2.95
LRRC41,1,-1.35
LRRC41,2,-0.423
LRRC41,3,-1.27
ZFPL1,1,-0.365
ZFPL1,2,-1.36
ZFPL1,3,0.413
PJA2,1,1.4
PJA2,2,-0.778
PJA2,3,0.67
SLC6A18,1,1.14
SLC6A18,2,0.651
SLC6A18,3,-0.609
OR7E24,1,2.27
OR7E24,2,-0.285
OR7E24,3,0.301
CTNS,1,0.39
CTNS,2,2.45
CTNS,3,0.958
THUMPD2,1,4.23
THUMPD2,2,3.29
THUMPD2,3,1.18
NUP50,1,-0.761
NUP50,2,0.0634
NUP50,3,0.5
TMTC2,1,-0.825
TMTC2,2,2.13
TMTC2,3,0.874
BORCS5,1,1.54
BORCS5,2,0.0446
BORCS5,3,-0.324
KAT6A,1,1.6
KAT6A,2,1.64
KAT6A,3,-0.696
TMEM151A,1,1.25
TMEM151A,2,0.243
TMEM151A,3,-0.643
SH3BGR,1,-1.07
SH3BGR,2,-0.675
SH3BGR,3,1.47
CTH,1,1.2
CTH,2,-0.323
CTH,3,5.84 (active)
CD36,1,0.0564
CD36,2,-0.0968
CD36,3,-0.667
GLP1R,1,-1.02
GLP1R,2,-1.03
GLP1R,3,1.06
SCYL3,1,0.399
SCYL3,2,3.77
SCYL3,3,2.04
KCTD20,1,-0.467
KCTD20,2,-0.718
KCTD20,3,0.0217

Reprinted from above for reference:
Gene,reagent,G2 robust z-score
GLP1R,1,-1.02
GLP1R,2,-1.03
GLP1R,3,1.06
SCYL3,1,0.399
SCYL3,2,3.77
SCYL3,3,2.04
KCTD20,1,-0.467
KCTD20,2,-0.718
KCTD20,3,0.0217
